Our source for the IC50 values is article PMC7069944, “Amino acid levels determine metabolism and CYP450 function of hepatocytes and hepatoma cell lines” (Nature Communications, 2020).

Experiment [1] relates to Spheroid of immortalized PHHs. More on the design: method as in ref 10 (a number printed in a supplementary file, which may have a reference list of its own: not looked up in the article's list). To be noted: 24 h, ATP; cited from earlier work.
Experiment [2] relates to Co-culture of PHHs and fibroblasts. On the set-up: method as in ref 4 (a number printed in a supplementary file, which may have a reference list of its own: not looked up in the article's list). The conditions noted are these: 24h, ATP; cited from earlier work.
Experiment [3] relates to cells cultured in AAGLY medium. Briefly: Single-exposure toxicity, summary value of this study (Boon et al). The class given is cell-based. The conditions noted are these: Homo sapiens, single 24 h exposure. On the procedure: To evaluate the ability to predict hepatotoxicity, we adapted the differentiation assays to a 384-well format. […] As a readout, we evaluated cell viability by resazurin conversion and correlated the results to therapeutic doses (Cmax values).
PSCs were differentiated in a 384-well format. […] As a negative control, 41 wells were left untreated. HepG2 were seeded at 40,000 cells per well. […] Cells were fixed with 4% PFA. […] Drugs were administrated after 8 h of attachment.

For the next experiment, the system named is Spheroid of PHHs. On the set-up: method as in ref 3 (a number printed in a supplementary file, which may have a reference list of its own: not looked up in the article's list). The conditions noted are these: 48h, ATP; cited from earlier work.

In general, IC50 refers to the concentration at which inhibition is half-maximal.

`CCCCc1oc2ccccc2c1C(=O)c1cc(I)c(OCCN(CC)CC)c(I)c1` [Amiodarone, amiodarone]: the IC50 is 260 µM in experiment [1], 33 µM in experiment [2], 5 to 10 µM in experiment [3] and above 100 µM with Spheroid of PHHs.
